For at least one compound, name, drawing or mass did not settle the structure.
Key:
[1] = tested on: Colo205Luc cells; experiment: Cell growth assay, Colo205; details: 5B1 0.001-0.01 μg/ml (BEZ235), 0.001 μg/ml (Wortmannin)
[2] = tested on: CHLA136Luc cells; experiment: WST-1 cell growth assay, CHLA136Luc; format: cell-based, human; details: Wortmannin; impact less striking; data not shown
Text: WST-1 assay. […] The Student t test was used for statistical analysis.

In the case of `COC[C@H]1OC(=O)c2coc3c2[C@@]1(C)C1=C(C3=O)[C@@H]2CCC(=O)[C@@]2(C)C[C@H]1OC(C)=O` [Wortmannin], the “accelerated cell growth induced by low dose 5B1” value [1] is reported as “abrogated” and the “accelerated cell growth induced by low-dose 3F8” value [2] is reported as “abrogated”.

— patent publication US20150023954A1, “POTENTIATING ANTIBODY-INDUCED COMPLEMENT-MEDIATED CYTOTOXICITY VIA PI3K INHIBITION” (MEMORIAL SLOAN-KETTERING CANCER CENTER, priority 2012, published 2015)
